In publication PMC6115394 one finds binding data, which are given here for 1 substance.

Sequences of proteins named here, by UniProt entry; tags and fusion partners are left off. Residues count along the entry.
UniProt P04785, residues 20-509: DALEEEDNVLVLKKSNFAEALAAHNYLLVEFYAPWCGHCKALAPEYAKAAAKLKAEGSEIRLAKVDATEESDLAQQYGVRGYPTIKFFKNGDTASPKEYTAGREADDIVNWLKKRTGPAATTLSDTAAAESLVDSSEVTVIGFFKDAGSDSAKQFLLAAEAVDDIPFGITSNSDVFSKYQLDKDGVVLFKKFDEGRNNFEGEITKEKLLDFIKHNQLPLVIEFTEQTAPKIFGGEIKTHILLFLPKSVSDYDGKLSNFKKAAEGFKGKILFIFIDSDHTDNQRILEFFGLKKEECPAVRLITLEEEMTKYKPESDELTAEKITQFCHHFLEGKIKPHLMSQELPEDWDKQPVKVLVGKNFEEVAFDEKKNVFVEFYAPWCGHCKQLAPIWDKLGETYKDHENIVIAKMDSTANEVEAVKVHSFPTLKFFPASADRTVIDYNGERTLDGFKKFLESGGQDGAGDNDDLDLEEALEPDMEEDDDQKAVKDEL
UniProt O35303: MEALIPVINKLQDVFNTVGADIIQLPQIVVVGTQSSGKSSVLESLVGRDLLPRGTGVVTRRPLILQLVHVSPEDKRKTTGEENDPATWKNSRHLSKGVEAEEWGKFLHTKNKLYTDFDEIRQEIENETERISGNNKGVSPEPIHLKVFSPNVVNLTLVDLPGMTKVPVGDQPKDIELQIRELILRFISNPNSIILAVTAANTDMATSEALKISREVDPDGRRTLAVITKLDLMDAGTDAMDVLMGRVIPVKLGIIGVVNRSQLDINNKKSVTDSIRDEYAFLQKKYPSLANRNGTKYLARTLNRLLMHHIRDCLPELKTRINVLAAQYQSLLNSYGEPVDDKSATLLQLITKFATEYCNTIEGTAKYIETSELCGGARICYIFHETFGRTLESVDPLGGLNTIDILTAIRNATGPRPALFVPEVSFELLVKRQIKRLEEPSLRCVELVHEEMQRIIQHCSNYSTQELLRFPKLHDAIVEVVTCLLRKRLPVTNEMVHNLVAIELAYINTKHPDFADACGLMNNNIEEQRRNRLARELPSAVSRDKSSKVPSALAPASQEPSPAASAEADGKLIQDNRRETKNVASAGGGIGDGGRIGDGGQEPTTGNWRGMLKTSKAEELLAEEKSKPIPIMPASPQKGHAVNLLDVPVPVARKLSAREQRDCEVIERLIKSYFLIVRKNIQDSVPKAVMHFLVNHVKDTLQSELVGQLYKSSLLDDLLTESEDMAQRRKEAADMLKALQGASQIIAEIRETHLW

Experiment [1] deals with Protein disulfide isomerase (rat (endogenous in hippocampal CA1 tissue)) (UniProt P04785). Nature of the experiment: co-IP; rat CA1 tissue lysed in RIPA buffer with protease and phosphatase inhibitors; equal amounts of protein precipitated with PDI antibody and protein G sepharose at 4 °C overnight; western blot for DRP1; non-SE (normal) animals infused with vehicle, L-NAME, control siRNA or PDI siRNA. (Immunoblotting shows a protein as a band on a membrane.)

For experiment [2] the target is unchanged. Nature of the experiment: condition: only 3 days after status epilepticus (SE); co-IP; as a1, but tissue taken 3 days after pilocarpine-induced status epilepticus (SE), from animals infused with vehicle or L-NAME; compared with non-SE control animals.

No constants are given. Whether binding was seen depends on the method and setting. In cells and extracts the contact can be indirect. Some results given as binding are weak or reduced against the parent protein; the word gives no strength.

Consider “Dynamin-related protein 1 (from UniProt O35303 1-755)”, for which the binding entry is “binds” in experiment [1] and “no binding” in experiment [2].
